# Measured data: PubChem BioAssay AID1259405 (NCATS, 2018)
# Test: 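Mouse-designed siRNAs used to find CHO productivity engineering targets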 (primary screen)
# System: Chinese hamster CHO-K1 ovary cells with stable secreted eGFP expression
# Reagents: single siRNA against mouse genes, 0.8 pmol siRNA per well (2 µl of 400 nM stock)
# Duration: 3 days
# Measured: 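Percent of the per-plate non-targeting control median for intracellular GFP per well by laser scanning cytometry and for cell viability by ATP luminescence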
# Reading the numbers: GFP, % of control: higher = more GFP per well, higher productivity; viability (ATP), % of control: higher = more viable cells (more ATP)
# Call rule: 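Called active when intracellular GFP, relative to negative control, is at or above 120%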
# Shown is an unselected part of about 50,000 reagents. About 4,000 of them (8%) were called active. 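Mouse siRNA library applied to hamster cells; one well for each siRNA.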 Reagents against one gene are numbered here. Reagent sequences are not shown.
gene symbol,reagent,"GFP, % of control","viability (ATP), % of control",call
Pfdn2 (prefoldin 2),1,87.9,38.4,inactive
Pfdn2 (prefoldin 2),2,79.4,74.9,inactive
Pfdn2 (prefoldin 2),3,75.1,90.7,inactive
C130074G19Rik (RIKEN cDNA C130074G19 gene),1,36.2,57.6,inactive
C130074G19Rik (RIKEN cDNA C130074G19 gene),2,71.8,87.4,inactive
C130074G19Rik (RIKEN cDNA C130074G19 gene),3,88.9,78.7,inactive
Gprasp1 (G protein-coupled receptor associated sorting protein 1),1,70,58.2,inactive
Gprasp1 (G protein-coupled receptor associated sorting protein 1),2,103,158,inactive
Gprasp1 (G protein-coupled receptor associated sorting protein 1),3,76.5,82.2,inactive
Dync1i2 (dynein cytoplasmic 1 intermediate chain 2),1,91.9,53.6,inactive
Dync1i2 (dynein cytoplasmic 1 intermediate chain 2),2,103,113,inactive
Fryl (FRY like transcription coactivator),1,92.8,44,inactive
Fryl (FRY like transcription coactivator),2,121,77.9,active
Fryl (FRY like transcription coactivator),3,64.6,83.1,inactive
Fryl (FRY like transcription coactivator),4,64.9,89.3,inactive
Fryl (FRY like transcription coactivator),5,73.1,97.1,inactive
Fryl (FRY like transcription coactivator),6,77.8,92.4,inactive
"Meak7 (MTOR associated protein, eak-7 homolog)",1,87.1,52.8,inactive
"Meak7 (MTOR associated protein, eak-7 homolog)",2,77.2,65.1,inactive
"Meak7 (MTOR associated protein, eak-7 homolog)",3,68.4,79.1,inactive
C130050O18Rik (RIKEN cDNA C130050O18 gene),1,64.3,72.3,inactive
C130050O18Rik (RIKEN cDNA C130050O18 gene),2,73.5,81,inactive
C130050O18Rik (RIKEN cDNA C130050O18 gene),3,78.8,91.5,inactive
2210408I21Rik (RIKEN cDNA 2210408I21 gene),1,86.5,90,inactive
2210408I21Rik (RIKEN cDNA 2210408I21 gene),2,37.8,53.2,inactive
2210408I21Rik (RIKEN cDNA 2210408I21 gene),3,119,86.3,inactive
Mrpl43 (mitochondrial ribosomal protein L43),1,118,94.2,inactive
Mrpl43 (mitochondrial ribosomal protein L43),2,68.2,94.4,inactive
Mrpl43 (mitochondrial ribosomal protein L43),3,101,90.5,inactive
Aim2 (absent in melanoma 2),1,40.5,75.3,inactive
Aim2 (absent in melanoma 2),2,98.2,79.7,inactive
Aim2 (absent in melanoma 2),3,90.9,78.2,inactive
Gatad2a (GATA zinc finger domain containing 2A),1,103,113,inactive
Gatad2a (GATA zinc finger domain containing 2A),2,52.5,43.9,inactive
Gatad2a (GATA zinc finger domain containing 2A),3,69.5,72.1,inactive

Part of the list above, showing only “GFP, % of control”:
2210408I21Rik (RIKEN cDNA 2210408I21 gene) #2: 37.8
2210408I21Rik (RIKEN cDNA 2210408I21 gene) #3: 119
